The values that follow come from the supplement of paper PMC9578143, “Small-Molecule Ebselen Binds to YTHDF Proteins Interfering with the Recognition of N^6-Methyladenosine-Modified RNAs” (ACS Pharmacology & Translational Science, 2022).

Structures are written as SMILES. This is one part of the list. Baselines shift from plate to plate; read single values as rough.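 Hits were defined as a z-score below −3.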

This experiment has as its target T1, YTHDF1 YTH domain (aa 365-554) (UniProt Q9BYJ9).
T1 sequence (whole entry): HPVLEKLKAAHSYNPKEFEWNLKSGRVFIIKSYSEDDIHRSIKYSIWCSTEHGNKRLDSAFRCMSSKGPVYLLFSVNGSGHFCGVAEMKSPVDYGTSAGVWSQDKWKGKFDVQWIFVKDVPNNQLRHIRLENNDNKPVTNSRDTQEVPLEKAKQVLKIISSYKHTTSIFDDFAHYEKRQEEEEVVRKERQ
Put plainly: tryptophan fluorescence intensity z-score (mean); higher = higher fluorescence, less quenching (negative = binding / quenching). The note with it: 10 µM.
Turning to `CC(C)C[C@H](CN)CC(=O)O` (plate: M 11-12), the “tryptophan fluorescence intensity z-score” value was inactive: -0.496.

Take `O=C1NC(=O)C(=O)C(=O)N1` (plate: M 21-22): the “tryptophan fluorescence intensity z-score” value was inactive: 0.738.

As to `CC(C)(C)NCC(O)c1ccccc1Cl` (stereo unspecified) (plate: M 23-24), the “tryptophan fluorescence intensity z-score” value was inactive: 0.664.

On to `CC(C)(C)C(=O)C(Oc1ccc(Cl)cc1)n1cncn1` (stereo unspecified) (plate: M 23-24), for which the “tryptophan fluorescence intensity z-score” value was inactive: 0.123.

As to `CC[C@H]1CN2CCc3cc(OC)c(OC)cc3[C@@H]2C[C@@H]1C[C@H]1NCCc2cc(OC)c(OC)cc21` (plate: M 3-4), the “tryptophan fluorescence intensity z-score” value is inactive: -0.216.

With `CNC(C)C(O)c1ccccc1` (stereo unspecified) (plate: M 5-6), the “tryptophan fluorescence intensity z-score” value is inactive: -0.0927.

On to `Cc1ccc(O)cc1.Cc1cccc(O)c1.Cc1ccccc1O` (plate: M 1-2), for which the “tryptophan fluorescence intensity z-score” value is inactive: 0.195.

For `C[C@@H]1CC[C@H]2[C@@H](C)C(=O)O[C@@H]3O[C@@]4(C)CC[C@@H]1[C@]32OO4` (plate: M 19-20), the “tryptophan fluorescence intensity z-score” value was inactive: 0.636.

Consider `CC[C@H]1[C@@H]2C[C@H]3[C@@H]4N(C)c5ccccc5[C@]45C[C@@H]([C@@H]2[C@H]5O)N3[C@@H]1O` (plate: M 17-18), for which the “tryptophan fluorescence intensity z-score” value was inactive: 0.994.

For the compound `COc1ccc(C[C@H]2NC[C@H](O)[C@H]2OC(C)=O)cc1` (plate: M 19-20), the “tryptophan fluorescence intensity z-score” value is inactive: 0.0321.

Take `CC1(C)N([O-])[N+](=O)C1(C)Br` (stereo unspecified) (plate: M 23-24): the “tryptophan fluorescence intensity z-score” value is inactive: -0.454.

For the compound `COc1ccc2c(c1)[nH]c1c(C)nccc12` (plate: M 17-18), the “tryptophan fluorescence intensity z-score” value was inactive: -0.451.

As to `O=C1c2ccccc2C(=O)c2ccccc21` (plate: M 21-22), the “tryptophan fluorescence intensity z-score” value was inactive: 0.0533.

Regarding `CNC(C)[C@H](O)c1ccccc1` (stereo partly specified) (plate: M 3-4), the “tryptophan fluorescence intensity z-score” value is inactive: -0.26.

`C[C@@H](CO)NC(=O)[C@@H]1C=C2c3cccc4[nH]cc(c34)C[C@H]2N(C)C1` (plate: M 3-4): the “tryptophan fluorescence intensity z-score” value is inactive: -0.182.

As to `CN1CCN(C(=O)OC2c3nccnc3C(=O)N2c2ccc(Cl)cn2)CC1` (stereo unspecified) (plate: M 15-16), the “tryptophan fluorescence intensity z-score” value is inactive: 0.508.

For `C[C@]12CC[C@H](O)C[C@H]1CC[C@@H]1[C@@H]2C[C@@H](O)[C@]2(C)[C@@H](C3=CC(=O)OC3)CC[C@]12O` (plate: M 15-16), the “tryptophan fluorescence intensity z-score” value was inactive: 0.676.

Turning to `NC(=O)C[S+]([O-])C(c1ccccc1)c1ccccc1` (stereo unspecified) (plate: M 11-12), the “tryptophan fluorescence intensity z-score” value is inactive: -0.731.

`COc1c2c(cc3c1OCO3)CC[N+](C)=C2` (plate: M 15-16): the “tryptophan fluorescence intensity z-score” value was inactive: 0.327.

As for `Cc1cccc(C)c1NC1=NCCCS1` (plate: M 7-8), the “tryptophan fluorescence intensity z-score” value is inactive: -0.0743.

As to `O=P1(NCCCl)OCCCN1CCCl` (stereo unspecified) (plate: M 11-12), the “tryptophan fluorescence intensity z-score” value was inactive: 0.632.

Consider `C=C(C)[C@@H]1[C@H]2OC(=O)[C@@H]1[C@]1(O)C[C@H]3O[C@]34C(=O)O[C@H]2[C@]14C` (plate: M 17-18), for which the “tryptophan fluorescence intensity z-score” value was inactive: 0.318.

In the case of `Oc1ccc(Cl)cc1` (plate: M 3-4), the “tryptophan fluorescence intensity z-score” value was inactive: 0.167.

`CC(=O)OC1CCC23C(=O)OC45CCC(C6=CC(=O)OC6)C4(C)CCC2C5CCC3(O)C1` (stereo unspecified) (plate: M 15-16): the “tryptophan fluorescence intensity z-score” value is inactive: 0.508.

Regarding `NC(=O)CN1CCCC1=O` (plate: M 7-8), the “tryptophan fluorescence intensity z-score” value is inactive: 0.0553.

As to `CC(C)CC(N(C)C)C1(c2ccc(Cl)cc2)CCC1` (stereo unspecified) (plate: M 9-10), the “tryptophan fluorescence intensity z-score” value is inactive: -0.234.

As for `O=C([O-])c1ccccc1-c1c2cc(Br)c(=O)cc-2oc2[c]([Hg+])c([O-])c(Br)cc12.[Na+].[Na+].[OH-]` (plate: M 5-6), the “tryptophan fluorescence intensity z-score” value was inactive: -1.12.

`N#C/C(=C\c1cccc(O)c1)C(=O)O` [alpha-CYANO-3-HYDROXYCINNAMICACID] (plate: M 21-22): the “tryptophan fluorescence intensity z-score” value is inactive: -0.255.

`CC(=O)O[C@@H]1C[C@@]2(C)[C@H](c3ccoc3)C[C@H]3O[C@]32[C@]2(C)C(=O)C(O)=C3C(C)(C)C(=O)C=C[C@]3(C)[C@@H]12` (plate: M 13-14): the “tryptophan fluorescence intensity z-score” value was inactive: 0.582.

`C#C[C@]1(O)CC[C@H]2[C@@H]3CCC4=CC(=O)CC[C@]4(C)[C@H]3CC[C@@]21C` (plate: M 7-8): the “tryptophan fluorescence intensity z-score” value is inactive: 0.404.

As for `CC(C)[N+](C)(CCC(C(N)=O)(c1ccccc1)c1ccccc1)C(C)C` (plate: M 3-4), the “tryptophan fluorescence intensity z-score” value is inactive: 0.0273.

`C[C@]12CC[C@H]3[C@@H](CC[C@]4(O)C[C@@H](O)CC[C@]34C=O)[C@@]1(O)CC[C@@H]2C1=CC(=O)OC1` (plate: M 13-14): the “tryptophan fluorescence intensity z-score” value was inactive: 0.527.

Take `O=C1C=CC(=O)c2c(O)cccc21` (plate: M 17-18): the “tryptophan fluorescence intensity z-score” value was inactive: 0.072.

`COc1ccc2c(c1)[C@]13CCCC[C@@H]1[C@H](C2)N(C)CC3` (plate: M 1-2): the “tryptophan fluorescence intensity z-score” value is inactive: 0.754.

On to `C=C[C@H]1CN2CC[C@H]1C[C@H]2[C@H](O)c1ccnc2ccccc12` (plate: M 5-6), for which the “tryptophan fluorescence intensity z-score” value is inactive: -0.129.

Turning to `C[C@H]1O[C@@H](O[C@H]2[C@@H](O)C[C@H](O[C@H]3[C@@H](O)C[C@H](O[C@H]4CC[C@@]5(C)[C@H](CC[C@@H]6[C@@H]5CC[C@]5(C)[C@@H](C7=CC(=O)OC7)[C@@H](O)C[C@]65O)C4)O[C@@H]3C)O[C@@H]2C)C[C@H](O)[C@@H]1O` (plate: M 17-18), the “tryptophan fluorescence intensity z-score” value was inactive: 0.442.

For the compound `CC1=NCCc2c1[nH]c1cc(O)ccc21` (plate: M 17-18), the “tryptophan fluorescence intensity z-score” value was inactive: -0.156.

In the case of `CSc1nc(NC(C)C)nc(NC(C)C)n1` (plate: M 23-24), the “tryptophan fluorescence intensity z-score” value is inactive: 0.848.

In the case of `COc1cc(OC)c2c(c1)O[C@H](c1ccc(OC)c(OC)c1)[C@@H](O)C2` (plate: M 15-16), the “tryptophan fluorescence intensity z-score” value is inactive: 0.561.

For `C=CC[C@]1(O)CC[C@H]2[C@@H]3CCC4=CC(=O)CCC4=C3C=C[C@@]21C` (plate: M 11-12), the “tryptophan fluorescence intensity z-score” value is inactive: -0.411.

As for `OC[C@@H]1CCCN2CCCC[C@H]12` (plate: M 19-20), the “tryptophan fluorescence intensity z-score” value is inactive: 0.323.

Consider `C1CCc2nnnn2CC1` (plate: M 13-14), for which the “tryptophan fluorescence intensity z-score” value was inactive: 0.659.

Regarding `CC(Cc1ccc(O)cc1)NCC(O)c1cc(O)cc(O)c1` (stereo unspecified) (plate: M 7-8), the “tryptophan fluorescence intensity z-score” value was inactive: -0.0761.

As for `C=C[C@H]1CN2CC[C@H]1C[C@@H]2[C@@H](O)c1ccnc2ccccc12` (plate: M 5-6), the “tryptophan fluorescence intensity z-score” value was inactive: 0.121.

`CC(C)N(CCC(C(N)=O)(c1ccccc1)c1ccccn1)C(C)C` (stereo unspecified) (plate: M 3-4): the “tryptophan fluorescence intensity z-score” value is inactive: -0.5.

For `CC[C@@]1(O)C[C@H](O[C@H]2C[C@H](N(C)C)[C@H](O)[C@H](C)O2)c2c(cc3c(c2O)C(=O)c2c(O)cccc2C3=O)[C@H]1C(=O)OC` (plate: M 15-16), the “tryptophan fluorescence intensity z-score” value was inactive: 0.583.

Turning to `C[C@H](N)[C@H](O)c1ccc(O)c(O)c1` (plate: M 3-4), the “tryptophan fluorescence intensity z-score” value is inactive: 0.118.

Take `O=[N+]([O-])O[C@@H]1CO[C@H]2[C@@H]1OC[C@@H]2O` (plate: M 9-10): the “tryptophan fluorescence intensity z-score” value is inactive: -0.101.

On to `OC1CCCCC1N1CCC(c2ccccc2)CC1` (stereo unspecified) (plate: M 13-14), for which the “tryptophan fluorescence intensity z-score” value was inactive: 1.03.

Take `N[C@@H](Cc1ccc(N(CCCl)CCCl)cc1)C(=O)O` (plate: M 3-4): the “tryptophan fluorescence intensity z-score” value was inactive: 0.0419.

Take `CC(C)=CCOc1c2occc2cc2ccc(=O)oc12` (plate: M 15-16): the “tryptophan fluorescence intensity z-score” value was inactive: 0.67.

`CC1=CC(=O)c2c(O)cccc2C1=O` (plate: M 19-20): the “tryptophan fluorescence intensity z-score” value was inactive: 0.256.

`O=C1CN=C(c2ccccc2Cl)c2cc([N+](=O)[O-])ccc2N1` (plate: M 11-12): the “tryptophan fluorescence intensity z-score” value was inactive: -0.307.

On to `CN1[C@@H]2CC[C@H]1C[C@@H](OC(=O)[C@H](CO)c1ccccc1)C2` (plate: M 3-4), for which the “tryptophan fluorescence intensity z-score” value was inactive: 0.37.

In the case of `CC(=O)O[C@H]1C[C@@H](OC(C)=O)C(C)(C)C2C[C@@H](OC(C)=O)[C@]3(C)C(CC[C@@]4(C)[C@H](c5ccoc5)C(=O)[C@H]5O[C@]543)[C@]21C` (stereo partly specified) (plate: M 13-14), the “tryptophan fluorescence intensity z-score” value was inactive: 0.337.

On to `C=C(C)[C@H]1CN[C@H](C(=O)O)[C@H]1CC(=O)O` (plate: M 21-22), for which the “tryptophan fluorescence intensity z-score” value is inactive: -0.419.

On to `C[C@@H]1CC[C@@]2(OC1)O[C@H]1[C@@H](O)[C@H]3[C@@H]4CC[C@H]5C[C@@H](O[C@@H]6O[C@H](CO)[C@H](O[C@@H]7O[C@H](CO)[C@@H](O)[C@H](O[C@@H]8OC[C@@H](O)[C@H](O)[C@H]8O)[C@H]7O[C@@H]7O[C@H](CO)[C@H](O)[C@H](O[C@@H]8O[C@H](CO)[C@@H](O)[C@H](O)[C@H]8O)[C@H]7O)[C@H](O)[C@H]6O)[C@H](O)C[C@]5(C)[C@H]4CC[C@]3(C)[C@H]1[C@@H]2C` (plate: M 21-22), for which the “tryptophan fluorescence intensity z-score” value is inactive: 0.364.

In the case of `Cc1cc(O)ccc1Cl` (plate: M 1-2), the “tryptophan fluorescence intensity z-score” value is inactive: 0.0374.

As to `C=C[C@H]1CN2CC[C@H]1C[C@H]2[C@H](OC(=O)OCC)c1ccnc2ccc(OC)cc12` (plate: M 1-2), the “tryptophan fluorescence intensity z-score” value was inactive: 0.259.

Regarding `Nc1ncn[nH]1` (plate: M 23-24), the “tryptophan fluorescence intensity z-score” value was inactive: 0.584.

On to `CCCCC[C@H]1C(=O)O[C@H](C)[C@H](NC(=O)c2cccc(NC=O)c2O)C(=O)O[C@@H](C)[C@@H]1OC(=O)CC(C)C` [ANTIMYCINA(A1shown)] (plate: M 19-20), for which the “tryptophan fluorescence intensity z-score” value was inactive: 0.365.

On to `CC[C@H]1CN2CC[C@H]1C[C@@H]2[C@@H](O)c1ccnc2ccc(OC)cc12` (plate: M 21-22), for which the “tryptophan fluorescence intensity z-score” value was inactive: 0.319.

`CC(C)=CCCC1(C)C=Cc2c(O)c3c(c(CC=C(C)C)c2O1)OC12C(CC4CC1C(C)(C)OC2(C/C=C(/C)C(=O)O)C4O)C3=O` (stereo unspecified) (plate: M 15-16): the “tryptophan fluorescence intensity z-score” value was inactive: -1.54.

As for `N.N.[Cl][Pt][Cl]` (plate: M 7-8), the “tryptophan fluorescence intensity z-score” value is inactive: -0.438.

For the compound `CCCN1C[C@H](CSC)C[C@@H]2c3cccc4[nH]cc(c34)C[C@H]21` (plate: M 9-10), the “tryptophan fluorescence intensity z-score” value was inactive: 1.5.

In the case of `CC(=O)Oc1ccc(/C=C/c2cc(OC(C)=O)cc(OC(C)=O)c2)cc1` (plate: M 19-20), the “tryptophan fluorescence intensity z-score” value is inactive: 0.498.
